The other results are listed elsewhere or left out.

By UniProt entry, the sequences of proteins in these tests, tags left out. Where a name states a change or a piece, a line headed by the entry shows the natural chain unless it says otherwise.
UniProt Q86YI8: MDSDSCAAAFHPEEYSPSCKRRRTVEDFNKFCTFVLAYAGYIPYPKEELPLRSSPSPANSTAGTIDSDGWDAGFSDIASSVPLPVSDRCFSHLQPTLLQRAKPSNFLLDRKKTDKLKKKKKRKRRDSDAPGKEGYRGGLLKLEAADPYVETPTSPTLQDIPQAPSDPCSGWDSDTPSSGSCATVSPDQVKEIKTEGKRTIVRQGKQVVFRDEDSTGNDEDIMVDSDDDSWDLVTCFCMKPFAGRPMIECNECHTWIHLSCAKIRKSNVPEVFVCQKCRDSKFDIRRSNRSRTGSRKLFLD
UniProt Q9HB19: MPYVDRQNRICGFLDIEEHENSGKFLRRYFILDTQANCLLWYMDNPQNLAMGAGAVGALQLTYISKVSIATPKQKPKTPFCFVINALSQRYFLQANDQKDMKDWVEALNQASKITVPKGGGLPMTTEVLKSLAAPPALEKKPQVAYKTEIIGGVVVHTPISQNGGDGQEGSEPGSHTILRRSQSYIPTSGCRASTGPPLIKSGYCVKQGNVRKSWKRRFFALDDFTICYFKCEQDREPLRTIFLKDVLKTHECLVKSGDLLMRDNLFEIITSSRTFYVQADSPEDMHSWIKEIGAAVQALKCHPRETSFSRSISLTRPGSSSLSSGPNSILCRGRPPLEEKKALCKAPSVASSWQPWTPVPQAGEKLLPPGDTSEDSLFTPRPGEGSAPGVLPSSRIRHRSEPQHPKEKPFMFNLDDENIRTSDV
UniProt Q03405, whole entry, looked up: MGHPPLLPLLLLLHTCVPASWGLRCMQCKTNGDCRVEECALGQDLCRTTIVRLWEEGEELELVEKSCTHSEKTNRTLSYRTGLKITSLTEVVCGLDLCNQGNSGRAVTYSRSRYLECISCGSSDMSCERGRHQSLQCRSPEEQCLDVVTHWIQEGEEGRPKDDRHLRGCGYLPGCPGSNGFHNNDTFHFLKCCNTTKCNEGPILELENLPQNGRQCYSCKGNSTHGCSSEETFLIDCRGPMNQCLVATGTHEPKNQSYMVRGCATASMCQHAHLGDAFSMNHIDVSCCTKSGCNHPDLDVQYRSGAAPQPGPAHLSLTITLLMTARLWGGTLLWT
UniProt Q9BSJ6: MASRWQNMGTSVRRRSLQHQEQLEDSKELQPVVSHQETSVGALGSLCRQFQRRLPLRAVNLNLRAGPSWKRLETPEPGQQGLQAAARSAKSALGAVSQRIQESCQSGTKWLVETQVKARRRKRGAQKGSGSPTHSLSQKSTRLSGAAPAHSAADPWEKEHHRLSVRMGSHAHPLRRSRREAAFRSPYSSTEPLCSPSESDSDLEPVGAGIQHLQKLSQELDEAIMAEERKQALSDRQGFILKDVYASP
UniProt O75925, whole entry, looked up: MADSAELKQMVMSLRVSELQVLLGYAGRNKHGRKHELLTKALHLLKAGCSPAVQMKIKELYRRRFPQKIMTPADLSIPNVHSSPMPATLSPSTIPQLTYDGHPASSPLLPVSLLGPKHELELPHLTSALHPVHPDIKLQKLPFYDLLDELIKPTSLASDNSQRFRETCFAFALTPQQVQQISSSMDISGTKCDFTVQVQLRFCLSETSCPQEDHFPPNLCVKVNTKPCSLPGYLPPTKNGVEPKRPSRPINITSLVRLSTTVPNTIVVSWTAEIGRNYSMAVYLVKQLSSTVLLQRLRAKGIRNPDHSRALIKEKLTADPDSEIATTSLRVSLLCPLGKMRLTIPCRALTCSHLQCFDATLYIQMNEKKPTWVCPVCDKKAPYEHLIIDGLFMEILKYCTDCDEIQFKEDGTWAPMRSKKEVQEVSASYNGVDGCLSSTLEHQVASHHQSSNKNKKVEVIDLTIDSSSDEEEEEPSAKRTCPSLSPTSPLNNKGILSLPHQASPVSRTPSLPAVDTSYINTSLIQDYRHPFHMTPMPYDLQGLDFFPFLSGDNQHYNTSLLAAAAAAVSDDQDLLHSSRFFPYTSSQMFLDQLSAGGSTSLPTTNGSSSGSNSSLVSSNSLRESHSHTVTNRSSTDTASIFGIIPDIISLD
UniProt Q99755: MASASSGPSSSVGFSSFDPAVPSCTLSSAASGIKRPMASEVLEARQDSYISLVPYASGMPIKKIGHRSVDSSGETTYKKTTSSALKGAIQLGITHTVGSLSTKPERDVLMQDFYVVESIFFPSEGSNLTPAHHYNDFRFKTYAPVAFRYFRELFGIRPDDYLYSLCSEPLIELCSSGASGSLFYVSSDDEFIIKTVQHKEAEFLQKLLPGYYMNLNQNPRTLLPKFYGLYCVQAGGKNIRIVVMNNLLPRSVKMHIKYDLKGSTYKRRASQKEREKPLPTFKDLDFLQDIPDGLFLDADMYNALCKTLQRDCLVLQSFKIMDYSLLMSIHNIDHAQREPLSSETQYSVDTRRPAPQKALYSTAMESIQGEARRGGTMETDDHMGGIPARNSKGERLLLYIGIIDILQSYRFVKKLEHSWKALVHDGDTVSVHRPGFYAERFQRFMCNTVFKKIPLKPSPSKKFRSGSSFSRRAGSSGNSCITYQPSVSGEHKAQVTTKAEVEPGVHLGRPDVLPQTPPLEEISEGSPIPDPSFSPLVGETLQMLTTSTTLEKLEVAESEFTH
UniProt Q9C010: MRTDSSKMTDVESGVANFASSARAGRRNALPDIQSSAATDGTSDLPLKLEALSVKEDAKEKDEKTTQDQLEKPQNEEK
PIGBOS1, A0A0B4J2F0, UniProt A0A0B4J2F0, whole entry, looked up: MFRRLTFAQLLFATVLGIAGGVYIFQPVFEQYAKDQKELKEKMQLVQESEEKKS
UniProt Q9HB20: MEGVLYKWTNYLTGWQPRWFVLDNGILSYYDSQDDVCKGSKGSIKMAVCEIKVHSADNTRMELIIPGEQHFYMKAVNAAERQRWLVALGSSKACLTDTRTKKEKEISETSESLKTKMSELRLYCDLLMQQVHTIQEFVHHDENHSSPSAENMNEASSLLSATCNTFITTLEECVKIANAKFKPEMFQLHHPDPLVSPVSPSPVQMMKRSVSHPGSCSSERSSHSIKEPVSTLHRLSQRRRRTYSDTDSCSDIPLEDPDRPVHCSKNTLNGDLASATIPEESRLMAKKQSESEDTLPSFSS
UniProt P36871: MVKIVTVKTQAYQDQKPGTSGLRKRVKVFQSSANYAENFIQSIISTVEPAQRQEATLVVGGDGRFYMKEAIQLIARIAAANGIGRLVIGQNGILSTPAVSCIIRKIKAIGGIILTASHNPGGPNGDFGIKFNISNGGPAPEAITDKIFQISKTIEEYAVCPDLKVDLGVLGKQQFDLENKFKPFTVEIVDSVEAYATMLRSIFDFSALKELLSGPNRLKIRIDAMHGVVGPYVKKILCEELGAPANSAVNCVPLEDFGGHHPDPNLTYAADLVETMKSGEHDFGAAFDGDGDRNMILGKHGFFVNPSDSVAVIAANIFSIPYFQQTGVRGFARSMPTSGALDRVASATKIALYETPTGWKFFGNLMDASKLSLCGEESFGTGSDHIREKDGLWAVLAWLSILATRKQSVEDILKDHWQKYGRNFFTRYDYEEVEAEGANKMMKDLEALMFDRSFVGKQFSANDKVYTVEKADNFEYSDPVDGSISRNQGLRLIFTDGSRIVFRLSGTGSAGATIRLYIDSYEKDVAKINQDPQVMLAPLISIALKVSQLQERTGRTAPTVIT
UniProt Q9HB75: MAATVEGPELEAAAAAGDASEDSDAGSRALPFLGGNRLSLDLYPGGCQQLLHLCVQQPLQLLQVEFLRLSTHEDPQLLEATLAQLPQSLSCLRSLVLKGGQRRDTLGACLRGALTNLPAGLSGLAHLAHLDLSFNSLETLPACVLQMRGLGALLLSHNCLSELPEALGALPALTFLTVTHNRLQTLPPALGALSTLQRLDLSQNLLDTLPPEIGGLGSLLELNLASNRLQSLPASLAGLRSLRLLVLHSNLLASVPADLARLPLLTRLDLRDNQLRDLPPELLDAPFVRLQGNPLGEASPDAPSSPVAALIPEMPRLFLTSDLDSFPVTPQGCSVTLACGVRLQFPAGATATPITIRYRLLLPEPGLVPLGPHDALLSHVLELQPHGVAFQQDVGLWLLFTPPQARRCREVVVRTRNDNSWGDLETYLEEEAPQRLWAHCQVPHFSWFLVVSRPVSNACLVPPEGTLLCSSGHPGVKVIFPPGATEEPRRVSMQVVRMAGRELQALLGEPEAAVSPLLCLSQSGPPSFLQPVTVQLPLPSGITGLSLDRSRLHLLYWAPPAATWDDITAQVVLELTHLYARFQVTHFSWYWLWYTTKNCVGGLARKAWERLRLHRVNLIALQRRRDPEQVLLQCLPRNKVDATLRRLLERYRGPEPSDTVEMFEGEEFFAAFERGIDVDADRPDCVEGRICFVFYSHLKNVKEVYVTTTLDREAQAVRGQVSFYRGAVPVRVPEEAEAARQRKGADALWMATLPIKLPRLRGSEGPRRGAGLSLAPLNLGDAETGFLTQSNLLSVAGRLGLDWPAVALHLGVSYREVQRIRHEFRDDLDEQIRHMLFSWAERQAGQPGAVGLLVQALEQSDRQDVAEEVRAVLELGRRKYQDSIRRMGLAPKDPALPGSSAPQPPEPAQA
UniProt Q96JA3: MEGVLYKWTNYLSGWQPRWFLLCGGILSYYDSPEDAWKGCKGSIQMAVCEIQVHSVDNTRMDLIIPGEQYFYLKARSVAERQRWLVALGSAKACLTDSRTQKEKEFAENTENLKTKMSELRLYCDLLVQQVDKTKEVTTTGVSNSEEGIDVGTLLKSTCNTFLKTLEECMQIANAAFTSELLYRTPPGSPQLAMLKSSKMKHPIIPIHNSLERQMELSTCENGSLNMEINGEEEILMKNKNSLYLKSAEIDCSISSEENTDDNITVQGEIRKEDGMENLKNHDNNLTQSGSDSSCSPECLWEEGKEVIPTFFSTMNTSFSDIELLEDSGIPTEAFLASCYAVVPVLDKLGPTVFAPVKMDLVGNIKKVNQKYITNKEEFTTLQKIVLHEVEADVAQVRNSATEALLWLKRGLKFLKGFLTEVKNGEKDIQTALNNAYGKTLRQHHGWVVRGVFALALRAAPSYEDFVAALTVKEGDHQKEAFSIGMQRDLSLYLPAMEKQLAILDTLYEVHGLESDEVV
UniProt O00562: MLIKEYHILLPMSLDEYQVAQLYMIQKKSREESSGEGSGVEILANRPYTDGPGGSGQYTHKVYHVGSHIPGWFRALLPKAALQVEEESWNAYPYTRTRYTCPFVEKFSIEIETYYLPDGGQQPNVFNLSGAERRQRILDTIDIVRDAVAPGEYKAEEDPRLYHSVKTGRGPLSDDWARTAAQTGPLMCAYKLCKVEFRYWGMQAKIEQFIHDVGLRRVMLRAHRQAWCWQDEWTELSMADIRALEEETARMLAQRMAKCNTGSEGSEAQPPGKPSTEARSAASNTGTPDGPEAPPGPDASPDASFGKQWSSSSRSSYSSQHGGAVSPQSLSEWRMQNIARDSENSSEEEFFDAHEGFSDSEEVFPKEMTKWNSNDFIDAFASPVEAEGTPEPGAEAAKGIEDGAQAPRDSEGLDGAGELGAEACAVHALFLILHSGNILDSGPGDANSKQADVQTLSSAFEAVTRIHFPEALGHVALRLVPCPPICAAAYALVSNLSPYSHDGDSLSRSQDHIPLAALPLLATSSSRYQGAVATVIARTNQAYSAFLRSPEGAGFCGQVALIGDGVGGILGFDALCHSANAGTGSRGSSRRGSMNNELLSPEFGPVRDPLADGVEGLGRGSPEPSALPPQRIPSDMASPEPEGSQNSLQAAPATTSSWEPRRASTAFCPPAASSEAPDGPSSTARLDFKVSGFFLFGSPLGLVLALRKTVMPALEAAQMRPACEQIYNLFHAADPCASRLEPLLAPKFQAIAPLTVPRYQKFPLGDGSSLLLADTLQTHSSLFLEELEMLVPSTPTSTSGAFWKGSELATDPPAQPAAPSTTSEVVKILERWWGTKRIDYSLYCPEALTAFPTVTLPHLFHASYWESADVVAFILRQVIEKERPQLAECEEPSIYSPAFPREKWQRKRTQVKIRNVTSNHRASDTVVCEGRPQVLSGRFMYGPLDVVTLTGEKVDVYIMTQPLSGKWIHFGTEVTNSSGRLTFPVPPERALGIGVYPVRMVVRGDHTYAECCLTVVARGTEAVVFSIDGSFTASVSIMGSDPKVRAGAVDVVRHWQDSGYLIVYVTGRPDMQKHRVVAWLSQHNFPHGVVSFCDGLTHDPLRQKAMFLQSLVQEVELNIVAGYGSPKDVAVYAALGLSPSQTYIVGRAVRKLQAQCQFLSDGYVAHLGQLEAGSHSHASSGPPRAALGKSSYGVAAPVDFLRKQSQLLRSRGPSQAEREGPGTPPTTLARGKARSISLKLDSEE
UniProt P08567: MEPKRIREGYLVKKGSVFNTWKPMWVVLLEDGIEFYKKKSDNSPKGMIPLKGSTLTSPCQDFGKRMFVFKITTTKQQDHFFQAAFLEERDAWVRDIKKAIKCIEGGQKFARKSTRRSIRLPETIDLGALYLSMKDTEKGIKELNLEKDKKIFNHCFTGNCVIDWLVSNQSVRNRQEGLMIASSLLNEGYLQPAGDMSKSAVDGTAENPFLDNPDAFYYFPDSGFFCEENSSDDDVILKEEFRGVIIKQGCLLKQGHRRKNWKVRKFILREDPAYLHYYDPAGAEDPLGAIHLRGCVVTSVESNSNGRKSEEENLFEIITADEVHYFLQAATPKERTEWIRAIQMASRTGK

Compound in one test: CN1CCC(CNc2ccc3ncc(-c4cccc(OC(F)(F)F)c4)n3n2)CC1
As to the kind of experiment: log2 fold change, soluble protein after heating vs DMSO (PISA); higher = thermal stabilisation; K562 lysate, 10 uM; active = over 0.2 and 3.5 SD of the protein, either way, in both replicates (recomputed). The procedure, abridged: (§1)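 K562 pellets were dounce-homogenised in PBS pH 7.4 with 1 mM MgCl2, and the crude extract at 1 mg/mL protein was treated with 10 μM compound for 30 min. Aliquots were heated for 3 min across 48°C-58°C, pooled, and brought to 0.5% NP-40 at 4°C; soluble protein was the supernatant after 21,000xg for 90 min. Soluble protein was quantified by TMTpro 16plex LC-MS/MS with channel sums equalised, and reported as log2 fold change in thermal stability against DMSO controls, with values from duplicates.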
Turning to PHF13 (UniProt Q86YI8), the log2 fold change is inactive: 0.411. Still for that read-out and setting: the same measure for PLEKHA2 (UniProt Q9HB19): inactive: -0.06. The same measure, in the same setting: under PLAUR (UniProt Q03405) stands inactive: 0.111; under PIM2 (UniProt Q9P1W9), inactive: 0.296; under PLEKHG2 (UniProt Q9H7P9), inactive: -0.067. Same read-out and setting: under PIMREG (UniProt Q9BSJ6) stands inactive: 0.03. With PIAS1 isoform 2 (UniProt O75925), the log2 fold change was inactive: -0.069. Still for that read-out and setting: the same measure for PIP5K1A (UniProt Q99755): active: -0.514; for PKP4 (UniProt Q99569): inactive: -0.005.

With PKIB isoform 2 (UniProt Q9C010), the log2 fold change is inactive: 0.1. Turning to PIGBOS1, A0A0B4J2F0, the log2 fold change was inactive: -0.2. The same measure, in the same setting: the same measure for PLEKHA3 (UniProt Q9HB20): inactive: -0.019; for PHETA1 isoform 4 (UniProt Q8N4B1): inactive: -0.013.

Compound in a further test: CN1CCN(CCOc2cc(OC3CCOCC3)c3c(Nc4c(Cl)ccc5c4OCO5)ncnc3c2)CC1 [saracatinib]
The description is as above. The procedure, abridged:
as §1
As to PLD6 (UniProt Q8N2A8), the log2 fold change is inactive: 0.045. The same measure, in the same setting: the same measure for PGM1 isoform 2 (UniProt P36871): inactive: 0.082; for PLEKHA2 (UniProt Q9HB19): inactive: 0.098. Same read-out and setting: the same measure for PHGDH, A0A286YFE1: inactive: -0.318; for PLAUR (UniProt Q03405): inactive: -0.049; for PIM2 (UniProt Q9P1W9): inactive: -0.086.

Regarding PLEKHG2 (UniProt Q9H7P9), the log2 fold change is inactive: -0.152. Same read-out and setting: under PIDD1 (UniProt Q9HB75) stands inactive: 0.085; under PLAU (UniProt P00749), inactive: 0.249; under PIAS1 isoform 2 (UniProt O75925), inactive: 0.014. For PIK3AP1 (UniProt Q6ZUJ8), the log2 fold change is inactive: -0.173. On the same count and under the same terms, the same measure for PLEKHA8 (UniProt Q96JA3): inactive: 0.002; for PIP5K1A (UniProt Q99755): inactive: 0.107. Same read-out and setting: the same measure for PKP4 (UniProt Q99569): inactive: -0.08; for PLEKHA3 (UniProt Q9HB20): inactive: -0.01.

Compound in the next test: CN1CCN(c2nc(C3=C(c4c[nH]c5ccccc45)C(=O)NC3=O)c3ccccc3n2)CC1 [sotrastaurin]
Described as above. In short, it runs like this:
as §1
On to PHF13 (UniProt Q86YI8), for which the log2 fold change is inactive: 0.048.

With PIP5K1B isoform 2 (UniProt O14986), the log2 fold change is inactive: 0.053. On the same count and under the same terms, under PHF19 (UniProt Q5T6S3) stands inactive: 0.054; under PLEKHA2 (UniProt Q9HB19), inactive: -0.029; under PIEZO2 isoform 4 (UniProt Q9H5I5), inactive: 0.003. Still for that read-out and setting: the same measure for PHOSPHO2 (UniProt C9JD35): inactive: -0.027. In the case of PITPNM1 (UniProt O00562), the log2 fold change was inactive: 0.039. On the same count and under the same terms, the same measure for PIMREG (UniProt Q9BSJ6): inactive: -0.068; for PHF20 (UniProt Q9BVI0): inactive: 0.015. Still for that read-out and setting: the same measure for PIAS1 isoform 2 (UniProt O75925): inactive: -0.046; for PIK3AP1 (UniProt Q6ZUJ8): inactive: -0.093; for PIP5K1A (UniProt Q99755): inactive: -0.018.

In the case of PLEK (UniProt P08567), the log2 fold change is inactive: 0.223. The same measure, in the same setting: the same measure for PHLDB3 (UniProt Q6NSJ2): inactive: -0.215; for PIGBOS1, A0A0B4J2F0: inactive: -0.114.

Regarding PLEKHA3 (UniProt Q9HB20), the log2 fold change was inactive: 0.015.
